Measured values taken from patent publication US10159725B2 (priority 2010, dated 2018).
End groups of sequences in plain letters are not given here.

Assay: general procedure: Fmoc solid-phase peptide synthesis
Conditions: whole synthesis, rel. area %, acetate

| Sequence | final HPLC purity [%] |
| --- | --- |
| SYNPLWLRI (listed as Homo sapiens) | 92.5 |
| LYQILQGIVF (listed as Homo sapiens) | 94.8 |
| SYIIDPLNL (listed as Homo sapiens) | 97.1 |
| SYIDVLPEF (listed as Homo sapiens) | 96.0 |
| NYLPFIMEL (listed as Homo sapiens) | 95.1 |
| VYIEKNDKL (listed as Homo sapiens) | 99.1 |
| NYLLYVSNF (listed as Homo sapiens) | 96.3 |
| AYLVYTDRL (listed as Homo sapiens) | 94.4 |
| VWSDVTPLIF (VWSDVTPLTF; listed as Homo sapiens) | 96.1 |
| YYNAAGFNKL (listed as Homo sapiens) | 97.3 |
| HYKPTPLYF (listed as Homo sapiens) | 90.7 |
| FYISPVNKL (listed as Homo sapiens) | 98.6 |
